From article PMC11700603
Substitutions are numbered along the chain they refer to. Like-named read-outs stand apart in the source and are kept apart here. These are yes or no findings as the source states them, for the method shown. Binding seen in cells or lysates may run through a third protein. Some binding calls cover weakened binding; strength is not graded here. For some assays here: Tags and fused reporters may be left off the sequences shown.

Chains of the proteins cited; added tags and fusions are not shown.
UniProt Q09472: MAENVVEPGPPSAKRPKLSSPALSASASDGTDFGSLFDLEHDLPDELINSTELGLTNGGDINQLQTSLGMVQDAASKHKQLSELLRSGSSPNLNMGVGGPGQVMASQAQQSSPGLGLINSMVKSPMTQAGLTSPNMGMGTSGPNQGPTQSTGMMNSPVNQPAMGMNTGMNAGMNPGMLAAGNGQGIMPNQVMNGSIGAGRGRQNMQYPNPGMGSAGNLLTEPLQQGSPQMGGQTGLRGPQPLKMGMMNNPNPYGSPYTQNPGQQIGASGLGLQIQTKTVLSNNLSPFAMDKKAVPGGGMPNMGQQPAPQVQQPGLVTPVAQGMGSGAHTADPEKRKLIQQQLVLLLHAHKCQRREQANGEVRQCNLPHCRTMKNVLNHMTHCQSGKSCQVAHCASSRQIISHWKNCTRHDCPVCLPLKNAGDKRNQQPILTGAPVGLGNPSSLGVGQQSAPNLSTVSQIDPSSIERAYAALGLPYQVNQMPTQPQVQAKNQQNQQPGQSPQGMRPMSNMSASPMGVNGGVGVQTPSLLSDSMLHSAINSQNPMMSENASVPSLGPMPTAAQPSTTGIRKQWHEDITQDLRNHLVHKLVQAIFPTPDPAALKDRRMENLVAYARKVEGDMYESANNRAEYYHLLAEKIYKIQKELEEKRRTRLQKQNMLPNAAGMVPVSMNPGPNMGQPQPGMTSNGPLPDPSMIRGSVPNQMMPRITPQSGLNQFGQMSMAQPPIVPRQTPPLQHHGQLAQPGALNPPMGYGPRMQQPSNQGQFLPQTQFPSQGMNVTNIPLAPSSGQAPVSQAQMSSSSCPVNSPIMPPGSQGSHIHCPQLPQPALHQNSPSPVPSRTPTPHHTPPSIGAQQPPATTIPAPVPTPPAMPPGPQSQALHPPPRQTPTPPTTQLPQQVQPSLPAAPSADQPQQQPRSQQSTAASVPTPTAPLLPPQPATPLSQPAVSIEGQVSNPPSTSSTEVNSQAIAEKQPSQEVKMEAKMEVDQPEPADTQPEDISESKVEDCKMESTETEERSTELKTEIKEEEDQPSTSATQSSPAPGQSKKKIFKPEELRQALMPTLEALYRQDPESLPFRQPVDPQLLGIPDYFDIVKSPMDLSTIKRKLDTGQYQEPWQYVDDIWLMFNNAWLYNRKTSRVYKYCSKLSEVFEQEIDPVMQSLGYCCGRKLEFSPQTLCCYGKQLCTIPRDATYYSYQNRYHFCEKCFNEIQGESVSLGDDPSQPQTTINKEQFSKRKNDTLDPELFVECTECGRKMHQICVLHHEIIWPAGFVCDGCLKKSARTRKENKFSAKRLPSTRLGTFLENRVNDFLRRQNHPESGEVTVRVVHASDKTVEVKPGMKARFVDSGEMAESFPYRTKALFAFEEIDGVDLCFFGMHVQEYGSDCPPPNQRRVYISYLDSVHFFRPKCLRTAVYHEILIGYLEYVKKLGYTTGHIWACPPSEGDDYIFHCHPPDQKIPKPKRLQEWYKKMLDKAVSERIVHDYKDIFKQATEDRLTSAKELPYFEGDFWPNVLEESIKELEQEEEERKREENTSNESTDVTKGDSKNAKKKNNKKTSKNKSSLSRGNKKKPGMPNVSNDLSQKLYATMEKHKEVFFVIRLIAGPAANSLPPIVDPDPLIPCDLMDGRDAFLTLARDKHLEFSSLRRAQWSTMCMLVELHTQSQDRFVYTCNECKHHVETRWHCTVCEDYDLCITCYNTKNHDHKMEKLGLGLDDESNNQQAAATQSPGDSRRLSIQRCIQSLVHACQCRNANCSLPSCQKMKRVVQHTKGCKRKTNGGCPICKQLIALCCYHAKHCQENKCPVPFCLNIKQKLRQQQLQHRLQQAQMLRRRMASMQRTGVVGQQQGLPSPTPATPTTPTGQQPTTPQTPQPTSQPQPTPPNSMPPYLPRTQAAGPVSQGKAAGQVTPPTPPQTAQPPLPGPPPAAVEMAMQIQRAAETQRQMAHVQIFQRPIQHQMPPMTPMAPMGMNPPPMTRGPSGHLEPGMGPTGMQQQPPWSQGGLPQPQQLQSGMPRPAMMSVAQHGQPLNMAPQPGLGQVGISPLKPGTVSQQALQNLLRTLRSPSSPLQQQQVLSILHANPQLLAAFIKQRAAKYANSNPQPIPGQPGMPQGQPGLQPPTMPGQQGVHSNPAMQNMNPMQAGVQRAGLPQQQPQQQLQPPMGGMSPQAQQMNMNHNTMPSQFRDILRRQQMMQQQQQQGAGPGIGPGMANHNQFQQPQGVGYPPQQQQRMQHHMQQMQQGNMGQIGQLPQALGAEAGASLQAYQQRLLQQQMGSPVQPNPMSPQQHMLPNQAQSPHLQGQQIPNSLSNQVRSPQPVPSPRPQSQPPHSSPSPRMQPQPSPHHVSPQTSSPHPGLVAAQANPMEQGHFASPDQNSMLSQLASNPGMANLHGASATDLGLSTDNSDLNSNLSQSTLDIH

Tests used:
[1] = target: T1, pyruvate dehydrogenase complex component X (PDHX), endogenous in HepG2 cells (human (endogenous in HepG2)) (UniProt O00330); experiment: co-IP; endogenous IP with anti-PDHX antibody or IgG from HepG2 cells, immunoblotting (Fig. 2C; Fig. 3M: cells with NTC or p300 shRNA, further with Flag-EV or Flag-p300-HAT)
T1 sequence: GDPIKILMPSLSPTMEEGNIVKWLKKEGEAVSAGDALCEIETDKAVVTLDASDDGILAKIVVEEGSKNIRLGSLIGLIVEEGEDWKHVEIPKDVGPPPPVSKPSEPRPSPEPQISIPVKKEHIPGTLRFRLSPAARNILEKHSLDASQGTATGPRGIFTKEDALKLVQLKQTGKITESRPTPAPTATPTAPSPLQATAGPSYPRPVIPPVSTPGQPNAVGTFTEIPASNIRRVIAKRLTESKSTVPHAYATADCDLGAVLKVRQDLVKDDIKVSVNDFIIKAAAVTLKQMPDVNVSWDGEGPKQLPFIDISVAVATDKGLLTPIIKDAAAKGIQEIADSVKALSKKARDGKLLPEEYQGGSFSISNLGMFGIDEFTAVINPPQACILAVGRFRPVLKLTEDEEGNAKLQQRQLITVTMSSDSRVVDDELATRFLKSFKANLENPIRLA

[2] = target: T2, GST-PDHX WT, purified from E. coli (UniProt O00330); experiment: pull-down; GST-PDHX WT, K488R and K488Q purified from E. coli, pull-down of DLAT (Fig. 3F); source of DLAT not told
T2 sequence: T1 sequence

[3] = target: T3, GST-PDHX K488R, purified from E. coli (UniProt O00330); experiment: as above
T3 sequence: T1 sequence with K435R

[4] = target: T4, Flag-PDHX-WT, in THLE3 cells (UniProt O00330); experiment: co-IP; IP with anti-Flag antibody or IgG from THLE3 cells overexpressing Flag-PDHX-WT (Fig. 3G)
T4 sequence: T1 sequence

[5] = target: T5, Flag-PDHX-WT, in HEK293T cells (UniProt O00330); experiment: co-IP; IP with anti-Flag antibody or IgG from HEK293T cells transfected with Flag-tagged PDHX-WT, N-terminal, C-terminal and C-terminal with K488R mutation (Fig. 3I)
T5 sequence: T1 sequence

[6] = target: T1, pyruvate dehydrogenase complex component X (PDHX), endogenous in HepG2 cells (human (endogenous in HepG2)); experiment: co-IP; endogenous IP with anti-PDHX antibody or IgG from HepG2 cells, immunoblotting (Fig. 2C; Fig. 3M: cells with NTC or p300 shRNA, further with Flag-EV or Flag-p300-HAT); remark: listed apart in the source
[7] = target: T6, Flag-PDHX-WT, in HepG2 cells (UniProt O00330); experiment: co-IP; IP with anti-Flag antibody or IgG from HepG2 cells expressing Flag-PDHX-WT, -K488R, -K488Q or -Δ488; immunoblotting of DLAT and DLD (Fig. 3E, 3G, 3J; Fig. 3K with NTC or shp300; Fig. S3C with C646)
T6 sequence: T1 sequence

[8] = target: T7, Flag-PDHX-K488R, in HepG2 cells (UniProt O00330); experiment: as above
T7 sequence: T1 sequence with K435R

With “p300, endogenous in HepG2 cells (from UniProt Q09472 1-2414) (enzyme)” the binding [1] was “binds”.

B1: DLAT used in the GST pull-down with GST-PDHX (enzyme, UniProt P10515 87-647)
chain: SLPPHQKVPLPSLSPTMQAGTIARWEKKEGDKINEGDLIAEVETDKATVGFESLEECYMAKILVAEGTRDVPIGAIICITVGKPEDIEAFKNYTLDSSAAPTPQAAPAPTPAATASPPTPSAQAPGSSYPPHMQVLLPALSPTMTMGTVQRWEKKVGEKLSEGDLLAEIETDKATIGFEVQEEGYLAKILVPEGTRDVPLGTPLCIIVEKEADISAFADYRPTEVTDLKPQVPPPTPPPVAAVPPTPQPLAPTPSAPCPATPAGPKGRVFVSPLAKKLAVEKGIDLTQVKGTGPDGRITKKDIDSFVPSKVAPAPAAVVPPTGPGMAPVPTGVFTDIPISNIRRVIAQRLMQSKQTIPHYYLSIDVNMGEVLLVRKELNKILEGRSKISVNDFIIKASALACLKVPEANSSWMDTVIRQNHVVDVSVAVSTPAGLITPIVFNAHIKGVETIANDVVSLATKAREGKLQPHEFQGGTFTISNLGMFGIKNFSAIINPPQACILAIGASEDKLVPADNEKGFDVASMMSVTLSCDHRVVDGAVGAQWLAEFRKYLEKPITMLL
For B1, the binding [2] was “binds” and the binding [3] was “binds”.

B2: dihydrolipoyl transacetylase (DLAT, E2), in THLE3 cells (enzyme, UniProt P10515 87-647)
chain: B1 chain
In the case of B2, the binding [4] is reported as “binds”.

B3: dihydrolipoyl transacetylase (DLAT, E2), in HEK293T cells (enzyme, UniProt P10515 87-647)
chain: B1 chain
In the case of B3, the binding [5] is reported as “binds”.

B4: dihydrolipoyl transacetylase (DLAT, E2), in HepG2 cells (enzyme, UniProt P10515 87-647)
chain: B1 chain
B4 was tested, and the binding [6] was “binds”, the binding [7] was “binds” and the binding [8] was “binds”.
